Data reported in publication doi:10.1101/2022.10.10.511527.
These are yes or no findings as the source states them, for the method shown. Binding seen in cells or lysates may run through a third protein. These calls come from enrichment with a bait or labelling near it, and not all partners need be listed. For some assays here: Sequences can lack the tags named with a protein. Blank lines part the entries; values can stand above or below the molecule they belong to.

Sequences of proteins named here, by UniProt entry; tags and fusion partners are left off.
UniProt Q9D4H8: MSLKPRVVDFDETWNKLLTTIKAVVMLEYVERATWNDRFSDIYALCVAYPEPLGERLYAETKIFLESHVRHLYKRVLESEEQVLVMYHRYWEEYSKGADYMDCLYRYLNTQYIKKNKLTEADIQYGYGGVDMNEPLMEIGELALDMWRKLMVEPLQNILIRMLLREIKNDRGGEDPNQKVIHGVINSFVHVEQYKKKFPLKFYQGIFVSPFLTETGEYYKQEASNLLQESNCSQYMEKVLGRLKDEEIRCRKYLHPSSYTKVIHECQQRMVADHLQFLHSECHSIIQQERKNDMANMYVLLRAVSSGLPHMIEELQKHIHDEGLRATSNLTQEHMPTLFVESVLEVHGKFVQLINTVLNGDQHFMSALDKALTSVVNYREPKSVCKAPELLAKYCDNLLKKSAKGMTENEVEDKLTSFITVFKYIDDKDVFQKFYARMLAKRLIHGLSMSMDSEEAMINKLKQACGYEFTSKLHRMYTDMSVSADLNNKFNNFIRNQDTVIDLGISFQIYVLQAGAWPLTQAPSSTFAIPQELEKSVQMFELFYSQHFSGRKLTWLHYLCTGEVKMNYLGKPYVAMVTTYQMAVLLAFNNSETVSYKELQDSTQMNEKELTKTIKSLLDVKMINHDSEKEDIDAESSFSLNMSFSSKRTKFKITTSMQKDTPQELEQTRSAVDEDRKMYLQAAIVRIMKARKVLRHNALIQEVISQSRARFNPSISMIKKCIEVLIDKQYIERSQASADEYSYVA
UniProt Q9R190: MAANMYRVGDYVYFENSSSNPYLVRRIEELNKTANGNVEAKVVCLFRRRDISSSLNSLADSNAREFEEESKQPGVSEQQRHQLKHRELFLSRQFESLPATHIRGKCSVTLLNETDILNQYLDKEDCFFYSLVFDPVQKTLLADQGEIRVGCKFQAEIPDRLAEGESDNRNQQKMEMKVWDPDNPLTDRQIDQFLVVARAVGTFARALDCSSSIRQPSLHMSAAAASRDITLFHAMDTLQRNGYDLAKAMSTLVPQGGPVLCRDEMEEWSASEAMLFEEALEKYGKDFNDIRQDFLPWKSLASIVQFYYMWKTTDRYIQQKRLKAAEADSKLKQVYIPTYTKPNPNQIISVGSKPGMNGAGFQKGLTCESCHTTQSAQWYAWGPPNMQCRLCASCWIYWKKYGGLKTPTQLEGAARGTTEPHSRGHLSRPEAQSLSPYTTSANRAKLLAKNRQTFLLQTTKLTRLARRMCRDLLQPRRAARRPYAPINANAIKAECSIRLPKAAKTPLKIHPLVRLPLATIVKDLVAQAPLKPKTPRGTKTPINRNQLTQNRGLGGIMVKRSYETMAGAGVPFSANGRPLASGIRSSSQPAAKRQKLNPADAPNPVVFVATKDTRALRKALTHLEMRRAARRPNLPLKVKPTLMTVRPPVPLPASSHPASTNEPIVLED
UniProt P60122: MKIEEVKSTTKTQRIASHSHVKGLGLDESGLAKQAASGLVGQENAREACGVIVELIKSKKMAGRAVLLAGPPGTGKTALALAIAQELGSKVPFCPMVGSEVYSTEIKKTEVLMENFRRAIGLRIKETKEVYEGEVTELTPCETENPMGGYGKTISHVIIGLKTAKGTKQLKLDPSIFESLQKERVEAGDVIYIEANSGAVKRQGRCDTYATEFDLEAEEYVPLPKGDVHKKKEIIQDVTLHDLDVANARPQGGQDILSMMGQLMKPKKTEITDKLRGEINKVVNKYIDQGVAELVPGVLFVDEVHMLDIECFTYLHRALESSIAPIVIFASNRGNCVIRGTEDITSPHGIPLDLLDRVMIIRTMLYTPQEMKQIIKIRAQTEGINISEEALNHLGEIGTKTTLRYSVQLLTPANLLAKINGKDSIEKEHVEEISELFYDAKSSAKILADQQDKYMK
UniProt Q9WTM5: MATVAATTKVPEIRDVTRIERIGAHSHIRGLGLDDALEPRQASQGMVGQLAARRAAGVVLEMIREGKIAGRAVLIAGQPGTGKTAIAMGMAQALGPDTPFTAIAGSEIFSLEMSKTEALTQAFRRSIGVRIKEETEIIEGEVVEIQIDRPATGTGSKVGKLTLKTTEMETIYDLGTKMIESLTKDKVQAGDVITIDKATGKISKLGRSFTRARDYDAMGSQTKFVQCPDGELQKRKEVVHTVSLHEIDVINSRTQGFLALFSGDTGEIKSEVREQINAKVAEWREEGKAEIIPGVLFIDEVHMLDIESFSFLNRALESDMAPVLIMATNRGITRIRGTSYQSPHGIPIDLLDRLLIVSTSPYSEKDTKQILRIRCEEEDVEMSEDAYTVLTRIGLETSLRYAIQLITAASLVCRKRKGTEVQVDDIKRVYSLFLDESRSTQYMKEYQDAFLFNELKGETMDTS
UniProt Q60737: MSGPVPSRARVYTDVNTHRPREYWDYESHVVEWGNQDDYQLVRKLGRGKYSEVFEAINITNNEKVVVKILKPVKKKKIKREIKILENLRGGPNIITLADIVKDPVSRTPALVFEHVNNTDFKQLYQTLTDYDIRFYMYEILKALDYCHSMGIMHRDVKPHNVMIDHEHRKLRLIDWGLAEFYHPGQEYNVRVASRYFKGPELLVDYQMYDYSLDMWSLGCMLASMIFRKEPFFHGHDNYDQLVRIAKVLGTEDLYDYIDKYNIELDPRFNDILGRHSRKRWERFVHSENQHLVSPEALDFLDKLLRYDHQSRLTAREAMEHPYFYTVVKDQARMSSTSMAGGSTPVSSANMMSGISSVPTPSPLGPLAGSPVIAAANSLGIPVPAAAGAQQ
UniProt P13864: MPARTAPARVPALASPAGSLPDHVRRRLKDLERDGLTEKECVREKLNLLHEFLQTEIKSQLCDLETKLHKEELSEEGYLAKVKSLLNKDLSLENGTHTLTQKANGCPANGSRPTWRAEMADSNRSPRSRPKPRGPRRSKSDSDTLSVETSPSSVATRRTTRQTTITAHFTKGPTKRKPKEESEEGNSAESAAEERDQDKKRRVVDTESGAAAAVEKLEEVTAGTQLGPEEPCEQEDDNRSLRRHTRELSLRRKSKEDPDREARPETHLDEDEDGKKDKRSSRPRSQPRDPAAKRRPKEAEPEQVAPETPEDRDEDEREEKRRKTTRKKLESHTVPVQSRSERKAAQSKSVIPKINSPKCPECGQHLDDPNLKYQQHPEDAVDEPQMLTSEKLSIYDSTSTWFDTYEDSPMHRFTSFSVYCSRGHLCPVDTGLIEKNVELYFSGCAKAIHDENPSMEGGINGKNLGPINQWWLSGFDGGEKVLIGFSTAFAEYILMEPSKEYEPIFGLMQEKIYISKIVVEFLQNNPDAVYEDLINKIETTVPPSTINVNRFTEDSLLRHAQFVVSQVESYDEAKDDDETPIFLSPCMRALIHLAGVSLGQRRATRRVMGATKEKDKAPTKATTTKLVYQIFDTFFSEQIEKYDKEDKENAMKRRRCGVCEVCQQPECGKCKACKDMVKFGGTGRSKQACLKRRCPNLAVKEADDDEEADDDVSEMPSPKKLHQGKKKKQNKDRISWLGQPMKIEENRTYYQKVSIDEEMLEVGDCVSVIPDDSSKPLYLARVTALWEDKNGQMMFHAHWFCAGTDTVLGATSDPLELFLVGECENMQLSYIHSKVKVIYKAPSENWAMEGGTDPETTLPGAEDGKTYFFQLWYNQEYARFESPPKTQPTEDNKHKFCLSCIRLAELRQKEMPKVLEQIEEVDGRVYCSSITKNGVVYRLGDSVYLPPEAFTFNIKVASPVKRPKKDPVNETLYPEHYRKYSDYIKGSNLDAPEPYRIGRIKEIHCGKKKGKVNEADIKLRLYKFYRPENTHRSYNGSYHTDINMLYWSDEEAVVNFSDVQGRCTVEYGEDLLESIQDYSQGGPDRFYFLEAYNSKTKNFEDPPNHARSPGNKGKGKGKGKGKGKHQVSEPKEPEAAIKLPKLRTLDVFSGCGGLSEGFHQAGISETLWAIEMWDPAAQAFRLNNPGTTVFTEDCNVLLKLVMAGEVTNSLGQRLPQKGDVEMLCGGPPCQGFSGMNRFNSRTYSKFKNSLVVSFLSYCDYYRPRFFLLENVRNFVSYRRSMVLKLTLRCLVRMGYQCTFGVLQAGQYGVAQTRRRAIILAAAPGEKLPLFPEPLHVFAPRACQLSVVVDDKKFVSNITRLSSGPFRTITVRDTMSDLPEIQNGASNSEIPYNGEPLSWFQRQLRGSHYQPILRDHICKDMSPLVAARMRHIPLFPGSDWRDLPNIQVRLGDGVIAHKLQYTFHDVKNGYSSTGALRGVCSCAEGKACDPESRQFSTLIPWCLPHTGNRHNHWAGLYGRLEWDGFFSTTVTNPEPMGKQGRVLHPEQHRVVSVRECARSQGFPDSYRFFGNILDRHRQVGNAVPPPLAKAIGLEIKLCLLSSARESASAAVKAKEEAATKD
UniProt Q61188: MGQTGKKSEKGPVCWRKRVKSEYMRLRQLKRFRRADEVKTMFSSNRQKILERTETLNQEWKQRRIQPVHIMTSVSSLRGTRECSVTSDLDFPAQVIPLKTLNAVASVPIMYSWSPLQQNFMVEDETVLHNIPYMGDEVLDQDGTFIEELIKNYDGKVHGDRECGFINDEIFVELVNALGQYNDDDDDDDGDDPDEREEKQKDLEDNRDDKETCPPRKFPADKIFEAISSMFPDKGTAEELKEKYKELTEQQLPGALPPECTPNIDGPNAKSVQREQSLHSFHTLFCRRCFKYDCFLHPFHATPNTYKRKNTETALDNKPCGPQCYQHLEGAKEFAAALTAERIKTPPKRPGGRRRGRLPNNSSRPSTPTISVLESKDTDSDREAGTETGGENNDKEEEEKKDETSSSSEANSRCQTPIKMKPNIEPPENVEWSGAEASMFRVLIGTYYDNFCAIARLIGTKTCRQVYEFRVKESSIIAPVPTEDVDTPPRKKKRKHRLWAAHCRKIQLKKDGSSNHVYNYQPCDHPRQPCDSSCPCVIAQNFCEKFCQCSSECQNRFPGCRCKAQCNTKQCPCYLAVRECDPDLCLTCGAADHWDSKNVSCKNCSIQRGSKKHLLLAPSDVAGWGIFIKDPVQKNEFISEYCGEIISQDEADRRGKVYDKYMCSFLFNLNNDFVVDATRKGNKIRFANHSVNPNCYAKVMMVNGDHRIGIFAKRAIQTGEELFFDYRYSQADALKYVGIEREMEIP
UniProt O09106: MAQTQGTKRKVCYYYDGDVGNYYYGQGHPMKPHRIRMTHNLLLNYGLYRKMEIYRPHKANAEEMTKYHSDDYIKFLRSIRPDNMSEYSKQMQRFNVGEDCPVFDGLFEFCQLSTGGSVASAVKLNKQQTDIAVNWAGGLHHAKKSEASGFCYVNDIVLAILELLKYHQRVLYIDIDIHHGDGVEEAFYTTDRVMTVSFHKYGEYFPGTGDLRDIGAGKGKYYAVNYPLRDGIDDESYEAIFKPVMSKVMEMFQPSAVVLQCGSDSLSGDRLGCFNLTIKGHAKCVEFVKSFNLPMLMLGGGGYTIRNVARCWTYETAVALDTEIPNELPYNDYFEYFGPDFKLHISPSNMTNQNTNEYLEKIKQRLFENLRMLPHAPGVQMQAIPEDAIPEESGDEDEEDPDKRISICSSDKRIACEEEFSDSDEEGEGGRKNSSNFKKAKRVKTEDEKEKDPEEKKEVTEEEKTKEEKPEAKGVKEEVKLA

How the values were obtained:
[1] = biological target: T1, HA/FLAG-PRAMEL7ΔN, one transgene copy in the Rosa26 locus of mouse ESCs (ESC+H/F-Pramel7ΔN) (mouse) (UniProt Q810Y8); assay: affinity purification with mass spectrometry
T1 sequence: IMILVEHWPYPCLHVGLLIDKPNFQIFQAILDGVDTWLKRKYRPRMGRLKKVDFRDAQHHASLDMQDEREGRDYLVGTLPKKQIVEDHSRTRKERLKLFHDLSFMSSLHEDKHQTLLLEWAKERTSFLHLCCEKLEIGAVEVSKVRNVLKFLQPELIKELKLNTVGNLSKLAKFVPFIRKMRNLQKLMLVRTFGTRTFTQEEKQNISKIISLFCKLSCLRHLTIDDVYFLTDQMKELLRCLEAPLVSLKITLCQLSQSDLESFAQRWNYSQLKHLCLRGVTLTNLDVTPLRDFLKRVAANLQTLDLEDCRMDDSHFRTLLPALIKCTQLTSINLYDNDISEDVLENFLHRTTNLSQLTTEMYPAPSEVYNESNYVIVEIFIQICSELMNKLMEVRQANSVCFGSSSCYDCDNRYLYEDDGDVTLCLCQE

[2] = biological target: Cullin2 (CUL2), endogenous in mouse ESCs (mouse (endogenous in E14 ESCs)) (UniProt Q9D4H8); assay: affinity purification with mass spectrometry

Molecule: MTA2, endogenous in mouse ESCs (from UniProt Q9R190 1-668)
- binding [1]: binds

Molecule: NUMA1, endogenous in mouse ESCs (from UniProt E9Q7G0 1-2094)
- binding [2]: binds
- binding [1]: binds

Molecule: RUVBL1, endogenous in mouse ESCs (from UniProt P60122 1-456)
- binding [1]: binds

Molecule: RUVBL2, endogenous in mouse ESCs (from UniProt Q9WTM5 1-463)
- binding [1]: binds

Molecule: UBA1, endogenous in mouse ESCs (from UniProt Q02053 1-1058)
- binding [2]: binds
- binding [1]: binds

B2: SIN3A, endogenous in mouse ESCs (protein, UniProt Q60520 1-1274)
chain: MKRRLDDQESPVYAAQQRRIPGSTEAFSHQHRVLAPAPPVYEAVSETMQSATGIQYSVAPNYQVSAVPQSSGSHGPAIAAVHSSHHHPTAVQPHGGQVVQSHAHPAPPVAPVQGQQQFQRLKVEDALSYLDQVKLQFGSQPQVYNDFLDIMKEFKSQSIDTPGVISRVSQLFKGHPDLIMGFNTFLPPGYKIEVQTNDMVNVTTPGQVHQIPTHGIQPQPQPPPQHPSQPSSQSAPTPAQPAPQPTAAKVSKPSQLQAHTPASQQTPPLPPYASPRSPPVQPHTPVTISLGTAPSLQNNQPVEFNHAINYVNKIKNRFQGQPDIYKAFLEILHTYQKEQRNAKEAGGNYTPALTEQEVYAQVARLFKNQEDLLSEFGQFLPDANSSVLLSKTTAEKVDSVRNDHGGTVKKPQLNNKPQRPSQNGCQIRRHSGTGATPPVKKKPKLMSLKESSMADASKHGVGTESLFFDKVRKALRSAEAYENFLRCLVIFNQEVISRAELVQLVSPFLGKFPELFNWFKNFLGYKESVHLESFPKERATEGIAMEIDYASCKRLGSSYRALPKSYQQPKCTGRTPLCKEVLNDTWVSFPSWSEDSTFVSSKKTQYEEHIYRCEDERFELDVVLETNLATIRVLEAIQKKLSRLSAEEQAKFRLDNTLGGTSEVIHRKALQRIYADKAADIIDGLRKNPSIAVPIVLKRLKMKEEEWREAQRGFNKVWREQNEKYYLKSLDHQGINFKQNDTKVLRSKSLLNEIESIYDERQEQATEENAGVPVGPHLSLAYEDKQILEDAAALIIHHVKRQTGIQKEDKYKIKQIMHHFIPDLLFAQRGDLSDVEEEEEEEMDVDEATGAPKKHNGVGGSPPKSKLLFSNTAAQKLRGMDEVYNLFYVNNNWYIFMRLHQILCLRLLRICSQAERQIEEENREREWEREVLGIKRDKSDSPAIQLRLKEPMDVDVEDYYPAFLDMVRSLLDGNIDSSQYEDSLREMFTIHAYIAFTMDKLIQSIVRQLQHIVSDEVCVQVTDLYLAENNNGATGGQLNSQTSRSLLESAYQRKAEQLMSDENCFKLMFIQSQGQVQLTVELLDTEEENSDDPVEAERWSDYVERYMSSDTTSPELREHLAQKPVFLPRNLRRIRKCQRGREQQEKEGKEGNSKKTMENVESLDKLECRFKLNSYKMVYVIKSEDYMYRRTALLRAHQSHERVSKRLHQRFQAWVDKWTKEHVPREMAAETSKWLMGEGLEGLVPCTTTCDTETLHFVSINKYRVKYGTVFKAP
- binding [1]: binds

B3: MCM4, endogenous in mouse ESCs (protein, UniProt P49717 1-862)
chain: MSSPASTPSRRSSRRGRVTPTQSLRSEESRSSPNRRRRGEDSSTGELLPMPTSPGADLQSPPAQNALFSSPPQMHSLAIPLDFDVSSPLTYGTPSSRVEGTPRSGVRGTPVRQRPDLGSARKGLQVDLQSDGAAAEDIVPSEQSLGQKLVIWGTDVNVATCKENFQRFLQCFTDPLAKEEENVGIDITQPLYMQQLGEINITGEPFLNVNCEHIKSFSKNLYRQLISYPQEVIPTFDMAVNEIFFDRYPDSILEHQIQVRPFNALKTKSMRNLNPEDIDQLITISGMVIRTSQLIPEMQEAFFQCQVCAHTTRVEIDRGRIAEPCSCVHCHTTHSMALIHNRSFFSDKQMIKLQESPEDMPAGQTPHTIVLFAHNDLVDKVQPGDRVNVTGIYRAVPIRVNPRVSNVKSVYKTHIDVIHYRKTDAKRLHGLDEEAEQKLFSEKRVKLLKELSRKPDIYERLASALAPSIYEHEDIKKGILLQLFGGTRKDFSHTGRGKFRAEINILLCGDPGTSKSQLLQYVYNLVPRGQYTSGKGSSAVGLTAYVMKDPETRQLVLQTGALVLSDNGICCIDEFDKMNESTRSVLHEVMEQQTLSIAKAGIICQLNARTSVLAAANPIESQWNPKKTTIENIQLPHTLLSRFDLIFLMLDPQDEAYDRRLAHHLVSLYYQSEEQVEEEFLDMAVLKDYIAYAHSTIMPRLSEEASQALIEAYVNMRKIGSSRGMVSAYPRQLESLIRLAEAHAKVRFSNKVEAIDVEEAKRLHREALKQSATDPRTGIVDISILTTGMSATSRKRKEELAEALRKLILSKGKTPALKYQQLFEDIRGQSDTAITKDMFEEALRALADDDFLTVTGKTVRLL
- binding [1]: binds

Next, values leading:

- binding [1]: binds
Molecule: CSNK2A1, endogenous in mouse ESCs (from UniProt Q60737 1-391)

- binding [2]: binds
- binding [1]: binds
Molecule: DNA methyltransferase 1 (DNMT1), endogenous in mouse ESCs (from UniProt P13864 1-1620)

- binding [1]: binds
Molecule: EZH2, endogenous in mouse ESCs (from UniProt Q61188 1-746)

- binding [1]: binds
Molecule: HDAC1, endogenous in mouse ESCs (from UniProt O09106 1-482)

- binding [2]: binds
- binding [1]: binds
Molecule: MSH6, endogenous in mouse ESCs (from UniProt P54276 1-1358)

- binding [1]: binds
Molecule: TDH, endogenous in mouse ESCs

- binding [2]: binds
- binding [1]: binds
Molecule: chromodomain helicase DNA-binding protein 4 (CHD4), endogenous in mouse ESCs (from UniProt Q6PDQ2 1-1915)

- binding [1]: binds
B1: JARID2, endogenous in mouse ESCs (protein, UniProt Q62315 1-1234)
chain: MSKERPKRNIIQKKYDDSDGIPWSEERVVRKVLYLSLKEFKNAQKRQHGEGLAGSLKAVNGLLGNAQAKALGPASEQSENEKDDASQVSSTSNDVSSSDFEEGPSRKRPRLQAQRKFAQSQPNSPSTTPVKIVEPLLPPPATQISDLSKRKPKTEDFLTFLCLRGSPALPNSMVYFGSSQDEEDVEEEDDETEDVKATTNNASSSCQSTPRKGKTHKHVHNGHVFNGSSRSAREKEPAHKHRSKEATPGKEKHSEPRADSRREQASGAQPTAASAAASSAKGLAANHQPPPSHRSAQDLRKQVSKVNGVTRMSSLGAGTNSAKKIREVRPSPSKTVKYTATVTKGTVTYTKAKRELVKETKPNHHKPSSAVNHTISGKTESSNAKTRKQVLSLGGASKSTGPAASGLKASSRLNPKSCTKEVGGRQLREGLRNSKRRLEEAQQVDKPQSPPKKMKGVAGNAEAPGKKASAASGEKSLLNGHVKKEVPERSLERNRPKRAAAGKNMLGKQAHGKTEGTPCENRSTSQPESSHKPHDPQGKPEKGSGKSGWAAMDEIPVLRPSAKEFHDPLIYIESVRAQVEKYGMCRVIPPPDWRPECKLNDEMRFVTQIQHIHKLGRRWGPNVQRLACIKKHLRSQGITMDELPLIGGCELDLACFFRLINEMGGMQQVTDLKKWNKLADMLRIPKTAQDRLAKLQEAYCQYLLSYDSLSPEEHRRLEKEVLMEKEILEKRKGPLEGHTESDHHKFHSLPRFEPKNGLVHGVTPRNGFRSKLKEVGRAPLKTGRRRLFAQEKEVVKEEEEDKGVLNDFHKCIYKGRSVSLTTFYRTARNIMNMCFSKEPAPAEIEQEYWRLVEEKDCHVAVHCGKVDTNTHGSGFPVGKSEPFSRHGWNLTVLPNNTGSILRHLGAVPGVTIPWLNIGMVFSTSCWSRDQNHLPYIDYLHTGADCIWYCIPAEEENKLEDVVHTLLQGNGTPGLQMLESNVMISPEVLCKKGIKVHRTVQQSGQFVVCFPGSFVSKVCCGYNVSETVHFATTQWTSMGFETAKEMKRRHIAKPFSMEKLLYQIAQAEAKKENGPTLSTISALLDELRDTELRQRRLLFEAGLHSSARYGSHDGNSTVADGKKKPRKWLQLETSERRCQICQHLCYLSMVVQENENVVFCLECALRHVEKQKSCRGLKLMYRYDEEQIISLVNQICGKVSGKHGGIENCLNKPTPKRGPRKRATVDVPPSRLPSS
